Test results as given in PubChem BioAssay AID1487 (National Center for Advancing Translational Sciences (NCATS), 2009).
Values joined by “and” are separate entries in the source; they are usually repeats but may differ in a detail not shown here. Equal values may be shown once. This is one part of the list. Further columns of the screen follow, without active or inactive calls. The list favours compounds with an active or inconclusive main result. Words in brackets tell the shape of the fitted curve; partial curves, single points and poor fits give uncertain potencies.

Experiment: qHTS Assay for Modulators of Lamin A Splicing
Settings: HeLa LMNA splicing GFP/RFP minigene ratio, 48 h
Method in brief: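 S3 HeLa cells stably expressing lamin A-EGFP splicing minigene plus DsRed2, 600 cells/well, 48 h compound exposure at 37C. Laser-scanning cytometry; analysed as GFP (500-530 nm)/RFP (575-640 nm) total intensity ratio; 0.5% DMSO vehicle.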

[1] = measured here: GFP splicing reporter channel
[2] = measured here: RFP viability control channel

Structure (SMILES): Cn1nnnc1Sc1ncnc2scc(-c3ccc(F)cc3)c12
- AC50 [1]: 3.16 µM [rising, single point]

Structure (SMILES): O=C(Oc1ccc(OC(=O)N2CCCCC2)cc1)N1CCCCC1
- AC50 [1]: 0.891 µM [rising, full curve, poor fit]

Structure (SMILES): O=C(CSC1=NC2(CCCCC2)N=C1c1ccccc1)Nc1ccc2c(c1)OCCO2
- AC50 [2]: 35.5 µM [rising, single point]

Structure (SMILES): Nc1nc(-c2ccccc2)c(N=Nc2cccc3ccccc23)s1
- AC50 [1]: 12.6 µM [rising, partial curve]
- AC50 [2]: 17.8 µM [rising, partial curve]

Structure (SMILES): Cc1ccc(C(C)C)cc1OCC(=O)N/N=C/c1ccc2c(c1)OCCO2
- AC50 [1]: 7.08 µM [rising, partial curve]
- AC50 [2]: 12.6 µM [rising, partial curve]

Structure (SMILES): CN(c1ccccc1)S(=O)(=O)c1cccc(NC(=O)c2cc(=O)c3ccccc3o2)c1
- AC50 [1]: 17.8 µM [rising, single point]

Structure (SMILES): COc1cc(/C=C/C(=O)c2cccc([N+](=O)[O-])c2)cc(OC)c1OC
- AC50 [1]: 35.5 µM [falling, single point]
- AC50 [2]: 35.5 µM [falling, single point]

Structure (SMILES): O=C(NCc1ccc2c(c1)OCO2)c1ccc(S(=O)(=O)N2CCOCC2)cc1
- AC50 [1]: 0.0631 µM [falling, full curve]
- AC50 [2]: 0.0562 µM [falling, full curve, poor fit]

Structure (SMILES): O=c1sc2ccccc2n1Cc1ccccc1
- AC50 [1]: 22.4 µM [falling, partial curve, poor fit]

Structure (SMILES): CN(C)CC(C(=O)c1ccccc1)c1ccccc1 (stereo not drawn)
- AC50 [1]: 3.55 µM [falling, full curve, poor fit]
- AC50 [2]: 3.55 µM [rising, single point]

Structure (SMILES): CCCCC1=CC2=C(c3ccco3)C(=O)C(C)(OC(=O)c3ccc(OC)cc3)C(=O)C2=CN1CC(C)C (stereo not drawn)
- AC50 [1]: 0.0126 µM [rising, full curve, poor fit]

Structure (SMILES): Cc1ccc(-n2nc(C)c(NC(=O)CCl)c2C)cc1
- AC50 [1]: 10 µM [falling, partial curve, poor fit]
- AC50 [2]: 10 µM [falling, partial curve]

Structure (SMILES): COc1ccc(-c2cc(-c3ccccc3)n3ncnc3n2)cc1
- AC50 [2]: 11.2 µM [rising, partial curve]

Structure (SMILES): CN(C(=O)c1cc(-n2cnnc2)ccc1Cl)c1ccccc1
- AC50 [1]: 0.00891 µM [rising, full curve, poor fit]
- AC50 [2]: 0.00447 µM [rising, full curve, poor fit]

Structure (SMILES): N#Cc1nc(-c2cccs2)oc1NCc1ccc(Cl)cc1
- AC50 [2]: 14.1 µM [rising, single point]

Structure (SMILES): COc1ccc(C(C#N)N2N=C(C)CC2(C)C)cc1 (stereo not drawn)
- AC50 [2]: 0.316 µM [falling, full curve, poor fit]

Structure (SMILES): Cc1ccc(Cl)cc1-n1ncc2c(NC3CCCCCC3)ncnc21
- AC50 [1]: 0.0398 µM [falling, full curve, poor fit]
- AC50 [2]: 0.02 µM [falling, full curve, poor fit]

Structure (SMILES): COCC(C)n1c(SCC(=O)N2CCc3ccccc3C2)nc2ccccc2c1=O (stereo not drawn)
- AC50 [1]: 12.6 µM [rising, single point]
- AC50 [2]: 20 µM [rising, partial curve]

Structure (SMILES): COc1ccc(-c2csc(N3CCN(C(=O)c4ccccc4)CC3)n2)cc1
- AC50 [2]: 17.8 µM [rising, single point]

Structure (SMILES): CCOC(=O)COc1cc(-n2c(=S)[nH]c3ccccc3c2=O)c(Cl)cc1Cl
- AC50 [1]: 0.251 µM [rising, full curve, poor fit]

Structure (SMILES): NC(N)=NC(N)=NCCc1ccccc1
- AC50 [1]: 0.224 µM [falling, full curve]
- AC50 [2]: 398 nM [falling, full curve] and 35.5 µM [rising, single point]

Structure (SMILES): CCCCc1nc2c(c3c1C[C@H](C)OC3)CN(C(=O)c1cccnc1)CC2
- AC50 [1]: 0.0316 µM [rising, full curve, poor fit]
- AC50 [2]: 0.112 µM [rising, full curve]

Structure (SMILES): COc1cc(NC(=O)c2cc(-c3cccs3)on2)cc(OC)c1OC
- AC50 [1]: 15.8 µM [rising, single point]
- AC50 [2]: 14.1 µM [rising, single point]

Structure (SMILES): Cc1cccc(C(O)(C(=O)NNc2ccc3ccccc3n2)c2cccc(C)c2)c1
- AC50 [2]: 20 µM [rising, partial curve, poor fit]

Structure (SMILES): Cc1nnc(SCc2ccc([N+](=O)[O-])cc2)[nH]c1=O
- AC50 [2]: 0.2 µM [falling, full curve, poor fit]

Structure (SMILES): O=S(=O)(c1cccs1)n1nnc2ccccc21
- AC50 [2]: 0.00447 µM [falling, full curve, poor fit]

Structure (SMILES): CCOC(=O)N1CCN(S(=O)(=O)c2ccc(OC)c(Cl)c2Cl)CC1
- AC50 [1]: 15.8 µM [rising, partial curve, poor fit]
- AC50 [2]: 11.2 µM [rising, partial curve, poor fit]

Structure (SMILES): COCCN(C(C)=O)c1nnc(-c2ccccn2)s1
- AC50 [1]: 2.51 µM [rising, partial curve]
- AC50 [2]: 3.16 µM [rising, partial curve, poor fit]

Structure (SMILES): Cc1nn(Cc2ccc(F)cc2)c2sc(C(=O)Nc3ccc(N4CCOCC4)cc3N3CCOCC3)cc12
- AC50 [1]: 12.6 µM [rising, single point]
- AC50 [2]: 25.1 µM [rising, single point]

Structure (SMILES): CC1(C(=O)N/N=C/c2ccc([N+](=O)[O-])o2)CC1(Br)Br (stereo not drawn)
- AC50 [1]: 15.8 µM [rising, single point]
- AC50 [2]: 35.5 µM [rising, single point]

Structure (SMILES): Cc1cccc2sc(NNC(=O)c3ccc(S(=O)(=O)N4CC(C)CC(C)C4)cc3)nc12 (stereo not drawn)
- AC50 [1]: 35.5 µM [falling, single point]

Structure (SMILES): CCOc1ccc(NC(=O)N2CCN(c3nc4ccccc4s3)CC2)cc1
- AC50 [1]: 17.8 µM [rising, partial curve]

Structure (SMILES): O=C(NCc1ccc2c(c1)CCN2C(=O)c1ccc(F)cc1)c1cc2ccccc2[nH]1
- AC50 [1]: 25.1 µM [falling, single point]

Structure (SMILES): COc1ccccc1CNC(=O)CCC(=O)N1CC2CCCN2c2ccccc21 (stereo not drawn)
- AC50 [1]: 2 µM [falling, full curve, poor fit]

Structure (SMILES): Fc1cc(F)cc(NC(=S)NN2CCOCC2)c1
- AC50 [2]: 0.0398 µM [rising, full curve, poor fit]

Structure (SMILES): CC(NC(=O)c1cccnc1)C(=O)O (stereo not drawn)
- AC50 [1]: 0.0224 µM [falling, full curve, poor fit]
- AC50 [2]: 0.0224 µM [falling, full curve, poor fit]

Structure (SMILES): Cn1c(SCc2ccc(Cl)cc2)nc(C(F)(F)F)cc1=O
- AC50 [2]: 0.00501 µM [falling, full curve, poor fit]

Structure (SMILES): CCCCS(=O)(=O)c1sc2nc3c(cc2c1N)CCCC3
- AC50 [2]: 12.6 µM [rising, partial curve]

Structure (SMILES): CC12COC3(C(=O)Nc4ccc([N+](=O)[O-])cc4)CC1CCC32C (stereo not drawn)
- AC50 [2]: 35.5 µM [rising, single point]

Structure (SMILES): CCc1ccccc1-n1c(SCC(=O)Nc2ccc3c(c2)OCCO3)nc2[nH]ncc2c1=O
- AC50 [2]: 11.2 µM [rising, single point]

Structure (SMILES): O=C(CCCOc1ccc(Cl)cc1Cl)N/N=C\C1CCCCC1
- AC50 [1]: 22.4 µM [falling, single point]
- AC50 [2]: 22.4 µM [falling, single point]

Structure (SMILES): COc1ccc(SCc2cc(=O)c3cc(Cl)ccc3[nH]2)cc1
- AC50 [1]: 0.0251 µM [falling, full curve, poor fit]
- AC50 [2]: 0.0224 µM [falling, full curve, poor fit]

Structure (SMILES): COc1ccc(Nc2cccc(Cl)c2)c(C(=O)O)c1
- AC50 [2]: 12.6 µM [rising, partial curve]

Structure (SMILES): Cc1nc2cc(C(=O)N3c4ccccc4CC3C)ccc2s1 (stereo not drawn)
- AC50 [1]: 0.316 µM [falling, full curve]
- AC50 [2]: 0.0708 µM [falling, full curve]

Structure (SMILES): O=C(NC1CCCCC1)c1ccc(Cn2c(SCc3ccccc3F)nc3cccnc32)cc1
- AC50 [1]: 10 µM [falling, partial curve]

Structure (SMILES): COc1cccc(C(=O)Nc2cccc(C(=O)OCc3cc(=O)n4nc(C5CC5)sc4n3)c2)c1
- AC50 [1]: 1.12 µM [falling, full curve]

Structure (SMILES): COc1ccc(C)cc1NC(=O)CN1CCN(c2ccccc2F)CC1
- AC50 [2]: 14.1 µM [rising, single point]

Structure (SMILES): O=C(c1ccccc1)N1CCN(c2ccc(NCc3ccc4c(c3)OCO4)cc2)CC1
- AC50 [2]: 15.8 µM [rising, partial curve]

Structure (SMILES): Cn1c(=O)c2c(nc(NCCO)n2CCc2ccccc2)n(C)c1=O
- AC50 [2]: 6.31 µM [rising, full curve, poor fit]

Structure (SMILES): c1ccc2c(NC3CC3)nc(-c3ccoc3)nc2c1
- AC50 [1]: 8.91 µM [falling, partial curve]

Structure (SMILES): Cc1noc(C)c1CSc1ccccc1C(=O)Nc1nccs1
- AC50 [1]: 0.2 µM [rising, full curve, poor fit]
- AC50 [2]: 1.41 µM [rising, partial curve]

Structure (SMILES): O=C(Nc1ccc(F)cc1)Nc1ccc(N2CCCC2)c(S(=O)(=O)Nc2ccccc2Cl)c1
- AC50 [2]: 4.47 µM [rising, full curve, poor fit]

Structure (SMILES): O=[N+]([O-])c1ccc(N2CCNCC2)cc1Sc1nc2ccccc2[nH]1
- AC50 [2]: 14.1 µM [rising, partial curve]

Structure (SMILES): Cc1ccc(C(=O)/C=C/C(=O)c2ccc(C)cc2)cc1
- AC50 [1]: 2.82 µM [falling, partial curve, poor fit]
- AC50 [2]: 3.16 µM [falling, full curve]

Structure (SMILES): COc1cc(CNn2c(C)n[nH]c2=S)cc(Br)c1OCc1ccc(F)cc1
- AC50 [1]: 22.4 µM [rising, single point]
- AC50 [2]: 31.6 µM [rising, single point]
